{"sequences": {"note": "The chains behind the UniProt entries cited, without tags or fusion partners.", "UniProt Q86W92": "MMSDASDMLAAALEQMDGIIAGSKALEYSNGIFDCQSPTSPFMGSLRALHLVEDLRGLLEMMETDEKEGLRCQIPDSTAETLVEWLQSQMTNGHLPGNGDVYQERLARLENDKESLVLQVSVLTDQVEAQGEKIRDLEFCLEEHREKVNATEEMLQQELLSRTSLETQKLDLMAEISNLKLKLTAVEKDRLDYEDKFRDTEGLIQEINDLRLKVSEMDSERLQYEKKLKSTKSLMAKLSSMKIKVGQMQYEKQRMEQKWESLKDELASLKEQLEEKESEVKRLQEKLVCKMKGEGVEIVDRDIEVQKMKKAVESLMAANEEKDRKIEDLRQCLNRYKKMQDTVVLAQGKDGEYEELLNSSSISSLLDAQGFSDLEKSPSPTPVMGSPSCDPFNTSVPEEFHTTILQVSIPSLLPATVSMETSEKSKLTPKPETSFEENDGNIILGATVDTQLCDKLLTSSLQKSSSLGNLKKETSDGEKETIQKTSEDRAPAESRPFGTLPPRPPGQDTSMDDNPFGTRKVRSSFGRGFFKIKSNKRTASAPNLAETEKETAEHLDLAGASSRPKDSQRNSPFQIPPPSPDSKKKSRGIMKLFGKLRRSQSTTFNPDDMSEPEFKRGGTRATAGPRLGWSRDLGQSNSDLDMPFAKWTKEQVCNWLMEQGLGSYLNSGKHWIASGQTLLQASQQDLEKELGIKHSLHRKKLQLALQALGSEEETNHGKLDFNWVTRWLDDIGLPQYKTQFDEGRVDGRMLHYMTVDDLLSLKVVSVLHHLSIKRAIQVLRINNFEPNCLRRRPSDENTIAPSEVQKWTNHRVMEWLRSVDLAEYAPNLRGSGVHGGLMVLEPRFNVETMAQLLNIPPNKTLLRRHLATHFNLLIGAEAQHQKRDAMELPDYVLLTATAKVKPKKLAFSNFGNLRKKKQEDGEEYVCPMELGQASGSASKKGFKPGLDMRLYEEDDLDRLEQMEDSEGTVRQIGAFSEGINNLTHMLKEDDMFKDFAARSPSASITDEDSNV"}, "source": "paper PMC8417031", "binders": {"B1": {"name": "SRCIN1 (p140Cap) (protein, UniProt Q9C0H9 1-1183)", "chain": "MGNAPSQDPERSSPPMLSADDAEYPREYRTLGGGGGGGSGGRRFSNVGLVHTSERRHTVIAAQSLEALSGLQKADADRKRDAFMDHLKSKYPQHALALRGQQDRMREQPNYWSFKTRSSRHTQGAQPGLADQAAKLSYASAESLETMSEAELPLGFSRMNRFRQSLPLSRSASQTKLRSPGVLFLQFGEETRRVHITHEVSSLDTLHALIAHMFPQKLTMGMLKSPNTAILIKDEARNVFYELEDVRDIQDRSIIKIYRKEPLYAAFPGSHLTNGDLRREMVYASRESSPTRRLNNLSPAPHLASGSPPPGLPSGLPSGLQSGSPSRSRLSYAGGRPPSYAGSPVHHAAERLGGAPAAQGVSPSPSAILERRDVKPDEDLASKAGGMVLVKGEGLYADPYGLLHEGRLSLAAAAGDPFAYPGAGGLYKRGSVRSLSTYSAAALQSDLEDSLYKAAGGGGPLYGDGYGFRLPPSSPQKLADVAAPPGGPPPPHSPYSGPPSRGSPVRQSFRKDSGSSSVFAESPGGKTRSAGSASTAGAPPSELFPGPGERSLVGFGPPVPAKDTETRERMEAMEKQIASLTGLVQSALLRGSEPETPSEKIEGSNGAATPSAPCGSGGRSSGATPVSGPPPPSASSTPAGQPTAVSRLQMQLHLRGLQNSASDLRGQLQQLRKLQLQNQESVRALLKRTEAELSMRVSEAARRQEDPLQRQRTLVEEERLRYLNDEELITQQLNDLEKSVEKIQRDVSHNHRLVPGPELEEKALVLKQLGETLTELKAHFPGLQSKMRVVLRVEVEAVKFLKEEPQRLDGLLKRCRGVTDTLAQIRRQVDEGVWPPPNNLLSQSPKKVTAETDFNKSVDFEMPPPSPPLNLHELSGPAEGASLTPKGGNPTKGLDTPGKRSVDKAVSVEAAERDWEEKRAALTQYSAKDINRLLEETQAELLKAIPDLDCASKAHPGPAPTPDHKPPKAPHGQKAAPRTEPSGRRGSDELTVPRYRTEKPSKSPPPPPPRRSFPSSHGLTTTRTGEVVVTSKKDSAFIKKAESEELEVQKPQVKLRRAVSEVARPASTPPIMASAIKDEDDEDRIIAELESGGGSVPPMKVVTPGASRLKAAQGQAGSPDKSKHGKQRAEYMRIQAQQQATKPSKEMSGSNETSSPVSEKPSASRTSIPVLTSFGARNSSISF"}}, "molecular_target": "PPFIA binding protein 1 (PPFIBP1) (human (endogenous in U251 MG)) (UniProt Q86W92)", "test": "affinity purification with mass spectrometry; Co-IP from U251 MG cell lysate with an anti-PPFIBP1 antibody, non-specific IgG as negative control; the methods name FLAG M2 beads and elution with 200 μg/ml 3×FLAG-peptide in PBS; SDS-PAGE, silver staining, in-gel trypsin digest, LC-MS/MS", "note": "Results are given in words; binding and its absence hold for the method and conditions named. Binding seen in cells or lysates may run through a third protein. These calls come from enrichment with a bait or labelling near it, and not all partners need be listed."}
{"binder": "B1", "values": [{"measurement": "binding", "value": "binds"}]}
